Results are given in words; binding and its absence hold for the method and conditions named. For part of these data: Binding can be weak; no strength is given.
Key:
Test in all cases: two-hybrid; pGADT7-FtMYB8 prey and pGBKT7 bait constructs co-transformed into yeast AH109; growth on SD/-Leu-Trp-His-Ade plates (reporters ADE2 and HIS3)
[1] = target: T1, AtEGL3 (Arabidopsis thaliana) (UniProt Q9CAD0)
T1 sequence: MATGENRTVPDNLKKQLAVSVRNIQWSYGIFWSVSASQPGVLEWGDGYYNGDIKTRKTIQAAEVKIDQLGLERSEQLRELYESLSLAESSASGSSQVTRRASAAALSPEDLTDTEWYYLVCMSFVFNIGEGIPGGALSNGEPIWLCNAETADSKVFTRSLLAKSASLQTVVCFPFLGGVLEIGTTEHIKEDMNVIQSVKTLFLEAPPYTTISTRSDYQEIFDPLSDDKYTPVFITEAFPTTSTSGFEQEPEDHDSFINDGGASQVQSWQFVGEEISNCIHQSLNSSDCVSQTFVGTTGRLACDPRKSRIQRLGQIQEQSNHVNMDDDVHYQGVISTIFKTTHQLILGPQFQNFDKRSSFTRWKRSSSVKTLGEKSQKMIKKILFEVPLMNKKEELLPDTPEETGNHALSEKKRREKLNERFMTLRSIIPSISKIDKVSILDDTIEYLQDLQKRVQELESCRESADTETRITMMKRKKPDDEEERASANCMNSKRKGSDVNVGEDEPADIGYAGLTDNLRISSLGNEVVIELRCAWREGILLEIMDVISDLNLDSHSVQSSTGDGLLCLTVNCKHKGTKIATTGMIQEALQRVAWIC

[2] = target: T2, AtTT8 (Arabidopsis thaliana) (UniProt Q9FT81)
T2 sequence: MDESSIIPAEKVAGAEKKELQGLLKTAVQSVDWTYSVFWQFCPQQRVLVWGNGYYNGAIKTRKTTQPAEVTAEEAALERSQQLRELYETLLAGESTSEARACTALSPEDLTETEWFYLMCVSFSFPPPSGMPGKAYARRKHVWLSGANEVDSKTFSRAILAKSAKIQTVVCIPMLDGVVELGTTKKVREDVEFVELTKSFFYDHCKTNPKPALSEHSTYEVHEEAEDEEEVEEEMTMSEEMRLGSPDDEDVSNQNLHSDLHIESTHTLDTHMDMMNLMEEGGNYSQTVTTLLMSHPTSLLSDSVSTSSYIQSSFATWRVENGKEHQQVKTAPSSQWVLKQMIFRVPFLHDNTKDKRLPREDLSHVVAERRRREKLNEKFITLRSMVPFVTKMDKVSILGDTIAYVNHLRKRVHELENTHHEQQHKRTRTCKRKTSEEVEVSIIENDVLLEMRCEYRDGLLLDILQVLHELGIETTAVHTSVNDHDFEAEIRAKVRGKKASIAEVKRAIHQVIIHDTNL

[3] = target: T3, AtGL3 (Arabidopsis thaliana) (UniProt Q9FN69)
T3 sequence: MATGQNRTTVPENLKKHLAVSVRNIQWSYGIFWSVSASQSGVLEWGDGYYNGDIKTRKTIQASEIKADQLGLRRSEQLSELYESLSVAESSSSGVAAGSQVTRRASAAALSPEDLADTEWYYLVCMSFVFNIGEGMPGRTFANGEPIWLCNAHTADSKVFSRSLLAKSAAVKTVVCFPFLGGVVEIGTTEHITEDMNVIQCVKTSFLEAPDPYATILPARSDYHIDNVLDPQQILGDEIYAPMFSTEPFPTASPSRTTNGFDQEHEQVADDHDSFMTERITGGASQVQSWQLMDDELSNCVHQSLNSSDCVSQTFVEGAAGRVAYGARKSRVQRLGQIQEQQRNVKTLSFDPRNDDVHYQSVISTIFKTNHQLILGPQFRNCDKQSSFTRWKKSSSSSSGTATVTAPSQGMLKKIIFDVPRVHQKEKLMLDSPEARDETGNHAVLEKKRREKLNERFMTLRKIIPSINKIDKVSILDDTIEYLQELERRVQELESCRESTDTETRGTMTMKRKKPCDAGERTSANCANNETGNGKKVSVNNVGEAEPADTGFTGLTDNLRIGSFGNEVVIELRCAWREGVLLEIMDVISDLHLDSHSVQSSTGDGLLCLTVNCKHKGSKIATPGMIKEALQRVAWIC

binding [1]: no binding
binding [2]: binds
binding [3]: no binding
Substance: FtMYB8 (from UniProt A0A4P2UPY7)

— publication PMC6582506
